At least one compound was matched to its structure with a doubt left.
Tested on: nitrosamines such as NNN and metabolites thereof in mammalian tissues
Test: Inhibition of selective localization of nitrosamines (general statements)
Type: in vivo
Settings: qualitative statement

Structure (SMILES): CCN(CC)C(=S)S [diethyldithiocarbamate]
- inhibition of nitrosamine localization: found to delocalize nitrosamines
